Measurements taken from the supplement of paper PMC12067093, “Discovery and optimisation of a covalent ligand for TRIM25 and its application to targeted protein ubiquitination” (Chemical Science, 2025).
Some of the results follow.
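Further: competitive profiling in live THP-1 cells: cysteine peptides tagged with an iodoacetamide desthiobiotin (IA-DTB) probe, intensity after compound treatment relative to DMSO-treated cells.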

By UniProt entry, the sequences of proteins in these tests, tags left out. Where a name states a change or a piece, a line headed by the entry shows the natural chain unless it says otherwise.
UniProt O75530, whole entry, looked up: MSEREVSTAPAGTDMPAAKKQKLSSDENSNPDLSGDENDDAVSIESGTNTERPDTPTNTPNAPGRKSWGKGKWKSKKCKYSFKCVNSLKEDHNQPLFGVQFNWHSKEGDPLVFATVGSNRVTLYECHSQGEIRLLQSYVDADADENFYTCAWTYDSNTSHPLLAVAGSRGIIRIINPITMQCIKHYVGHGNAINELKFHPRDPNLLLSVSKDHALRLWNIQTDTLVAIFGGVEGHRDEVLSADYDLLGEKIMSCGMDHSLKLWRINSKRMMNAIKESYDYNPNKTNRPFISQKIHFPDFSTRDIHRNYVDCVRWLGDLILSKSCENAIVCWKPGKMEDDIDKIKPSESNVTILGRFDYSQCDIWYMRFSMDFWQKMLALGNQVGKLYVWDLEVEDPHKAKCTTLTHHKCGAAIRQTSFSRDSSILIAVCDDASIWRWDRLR
UniProt Q7Z2Z2: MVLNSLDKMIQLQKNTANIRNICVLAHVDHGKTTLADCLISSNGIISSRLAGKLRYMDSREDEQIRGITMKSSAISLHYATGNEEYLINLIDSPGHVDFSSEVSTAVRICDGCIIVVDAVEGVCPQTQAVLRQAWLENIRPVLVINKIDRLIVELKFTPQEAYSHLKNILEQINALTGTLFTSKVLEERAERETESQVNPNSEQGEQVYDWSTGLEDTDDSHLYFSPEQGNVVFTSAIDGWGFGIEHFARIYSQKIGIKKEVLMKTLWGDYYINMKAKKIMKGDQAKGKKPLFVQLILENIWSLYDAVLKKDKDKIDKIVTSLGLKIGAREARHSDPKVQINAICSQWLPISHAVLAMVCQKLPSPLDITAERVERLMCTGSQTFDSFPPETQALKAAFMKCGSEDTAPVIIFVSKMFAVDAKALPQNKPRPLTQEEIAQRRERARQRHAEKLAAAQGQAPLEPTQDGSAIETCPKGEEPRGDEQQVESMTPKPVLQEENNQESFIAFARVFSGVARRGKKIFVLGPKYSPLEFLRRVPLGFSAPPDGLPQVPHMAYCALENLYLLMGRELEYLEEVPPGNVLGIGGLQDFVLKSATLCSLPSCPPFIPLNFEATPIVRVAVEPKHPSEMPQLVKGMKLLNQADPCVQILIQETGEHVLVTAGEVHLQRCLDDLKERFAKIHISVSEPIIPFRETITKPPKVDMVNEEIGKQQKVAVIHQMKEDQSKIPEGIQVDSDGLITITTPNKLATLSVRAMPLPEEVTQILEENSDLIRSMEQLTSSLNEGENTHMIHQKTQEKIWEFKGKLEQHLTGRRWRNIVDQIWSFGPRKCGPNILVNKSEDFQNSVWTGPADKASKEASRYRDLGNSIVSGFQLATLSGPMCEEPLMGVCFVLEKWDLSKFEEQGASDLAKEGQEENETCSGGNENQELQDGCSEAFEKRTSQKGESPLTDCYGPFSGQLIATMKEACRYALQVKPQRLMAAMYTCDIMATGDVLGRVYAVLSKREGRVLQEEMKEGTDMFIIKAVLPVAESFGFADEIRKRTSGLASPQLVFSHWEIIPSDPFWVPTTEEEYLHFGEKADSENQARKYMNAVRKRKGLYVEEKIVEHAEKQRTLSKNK
UniProt Q96F86: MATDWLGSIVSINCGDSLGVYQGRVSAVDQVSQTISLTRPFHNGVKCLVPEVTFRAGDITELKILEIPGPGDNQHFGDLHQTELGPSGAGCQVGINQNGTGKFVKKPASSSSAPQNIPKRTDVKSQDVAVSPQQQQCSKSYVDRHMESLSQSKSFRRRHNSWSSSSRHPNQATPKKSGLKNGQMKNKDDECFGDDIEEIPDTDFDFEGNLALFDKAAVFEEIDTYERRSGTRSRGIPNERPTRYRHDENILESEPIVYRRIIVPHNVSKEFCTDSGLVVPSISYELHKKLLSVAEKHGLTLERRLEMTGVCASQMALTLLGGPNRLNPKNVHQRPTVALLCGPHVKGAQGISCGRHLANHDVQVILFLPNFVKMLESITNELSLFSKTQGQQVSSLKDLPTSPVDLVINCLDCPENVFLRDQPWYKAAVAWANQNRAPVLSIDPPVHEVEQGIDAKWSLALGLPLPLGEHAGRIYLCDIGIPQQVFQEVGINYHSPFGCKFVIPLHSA
UniProt Q05639, whole entry, looked up: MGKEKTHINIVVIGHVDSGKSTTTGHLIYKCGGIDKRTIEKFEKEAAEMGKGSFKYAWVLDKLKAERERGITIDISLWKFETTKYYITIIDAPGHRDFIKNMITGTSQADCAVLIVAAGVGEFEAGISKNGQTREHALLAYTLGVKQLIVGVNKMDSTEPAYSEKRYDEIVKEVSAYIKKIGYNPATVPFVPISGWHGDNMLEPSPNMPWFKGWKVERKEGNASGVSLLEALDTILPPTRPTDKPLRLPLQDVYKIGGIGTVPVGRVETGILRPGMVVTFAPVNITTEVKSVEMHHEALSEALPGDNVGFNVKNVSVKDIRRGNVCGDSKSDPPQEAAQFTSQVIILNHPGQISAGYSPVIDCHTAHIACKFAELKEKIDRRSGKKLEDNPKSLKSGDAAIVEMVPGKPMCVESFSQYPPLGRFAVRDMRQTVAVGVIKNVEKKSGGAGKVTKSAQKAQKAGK
UniProt O60739, whole entry: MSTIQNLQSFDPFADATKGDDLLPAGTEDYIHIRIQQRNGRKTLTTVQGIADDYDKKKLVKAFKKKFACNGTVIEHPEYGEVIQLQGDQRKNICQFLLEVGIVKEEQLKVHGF
UniProt P05198, whole entry, looked up: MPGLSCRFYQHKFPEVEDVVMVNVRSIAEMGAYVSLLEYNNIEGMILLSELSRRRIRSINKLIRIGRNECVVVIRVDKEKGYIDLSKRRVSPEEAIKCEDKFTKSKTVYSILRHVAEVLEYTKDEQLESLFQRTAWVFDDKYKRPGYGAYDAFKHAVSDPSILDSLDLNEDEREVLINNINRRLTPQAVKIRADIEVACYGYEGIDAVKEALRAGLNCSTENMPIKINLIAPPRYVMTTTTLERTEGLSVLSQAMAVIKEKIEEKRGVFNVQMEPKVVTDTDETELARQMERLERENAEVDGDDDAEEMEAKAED
UniProt Q12805: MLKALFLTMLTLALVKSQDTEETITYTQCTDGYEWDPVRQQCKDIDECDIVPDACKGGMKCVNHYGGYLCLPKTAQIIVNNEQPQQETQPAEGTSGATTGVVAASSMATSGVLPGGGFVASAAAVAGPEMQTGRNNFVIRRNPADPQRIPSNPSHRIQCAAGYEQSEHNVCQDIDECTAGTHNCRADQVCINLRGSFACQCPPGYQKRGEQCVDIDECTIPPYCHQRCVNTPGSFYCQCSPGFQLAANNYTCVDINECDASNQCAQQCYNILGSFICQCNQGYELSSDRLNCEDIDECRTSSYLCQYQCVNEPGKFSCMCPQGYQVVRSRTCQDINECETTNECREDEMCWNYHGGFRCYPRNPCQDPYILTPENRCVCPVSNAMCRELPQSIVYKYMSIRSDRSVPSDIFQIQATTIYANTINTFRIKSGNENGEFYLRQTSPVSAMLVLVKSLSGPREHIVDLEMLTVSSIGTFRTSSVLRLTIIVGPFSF
UniProt P47813, whole entry, looked up: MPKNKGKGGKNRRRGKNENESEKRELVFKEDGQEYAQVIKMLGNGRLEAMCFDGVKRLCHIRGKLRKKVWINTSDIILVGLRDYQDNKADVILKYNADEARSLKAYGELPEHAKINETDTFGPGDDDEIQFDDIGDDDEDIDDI
UniProt Q9NR50: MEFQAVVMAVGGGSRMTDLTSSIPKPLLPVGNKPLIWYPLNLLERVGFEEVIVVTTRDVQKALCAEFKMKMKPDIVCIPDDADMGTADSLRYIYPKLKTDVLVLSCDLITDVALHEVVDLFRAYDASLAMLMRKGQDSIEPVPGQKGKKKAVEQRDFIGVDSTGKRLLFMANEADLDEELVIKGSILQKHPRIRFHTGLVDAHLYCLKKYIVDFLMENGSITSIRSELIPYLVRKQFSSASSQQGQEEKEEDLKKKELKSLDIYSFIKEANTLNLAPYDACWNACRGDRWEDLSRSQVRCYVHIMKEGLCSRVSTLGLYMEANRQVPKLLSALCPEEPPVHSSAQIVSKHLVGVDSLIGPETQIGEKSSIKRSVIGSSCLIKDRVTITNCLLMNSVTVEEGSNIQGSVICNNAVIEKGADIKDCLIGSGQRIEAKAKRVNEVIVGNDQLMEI
UniProt Q92611: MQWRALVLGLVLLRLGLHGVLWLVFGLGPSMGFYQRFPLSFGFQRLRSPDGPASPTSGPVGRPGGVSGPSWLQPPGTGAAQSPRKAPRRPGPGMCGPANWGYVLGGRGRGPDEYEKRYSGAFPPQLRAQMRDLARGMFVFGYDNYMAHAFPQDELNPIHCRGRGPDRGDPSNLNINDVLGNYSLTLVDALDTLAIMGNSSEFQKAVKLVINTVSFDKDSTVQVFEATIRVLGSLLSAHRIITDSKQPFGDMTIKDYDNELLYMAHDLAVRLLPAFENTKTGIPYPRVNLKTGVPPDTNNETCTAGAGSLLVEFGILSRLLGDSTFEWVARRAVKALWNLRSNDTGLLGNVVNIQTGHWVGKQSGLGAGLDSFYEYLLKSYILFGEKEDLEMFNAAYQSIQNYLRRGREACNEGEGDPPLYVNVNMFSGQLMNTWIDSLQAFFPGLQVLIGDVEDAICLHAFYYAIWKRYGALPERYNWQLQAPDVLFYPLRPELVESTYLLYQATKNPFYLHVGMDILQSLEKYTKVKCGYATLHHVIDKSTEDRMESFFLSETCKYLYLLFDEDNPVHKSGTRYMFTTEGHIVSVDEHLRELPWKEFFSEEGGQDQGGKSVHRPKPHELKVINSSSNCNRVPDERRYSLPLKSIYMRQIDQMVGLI
UniProt Q8N9N8: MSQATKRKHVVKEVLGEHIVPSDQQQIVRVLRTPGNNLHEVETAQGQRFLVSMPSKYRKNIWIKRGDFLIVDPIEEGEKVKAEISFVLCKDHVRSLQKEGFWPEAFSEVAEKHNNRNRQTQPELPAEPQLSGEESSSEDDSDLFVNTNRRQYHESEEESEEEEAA
UniProt Q9H8V3: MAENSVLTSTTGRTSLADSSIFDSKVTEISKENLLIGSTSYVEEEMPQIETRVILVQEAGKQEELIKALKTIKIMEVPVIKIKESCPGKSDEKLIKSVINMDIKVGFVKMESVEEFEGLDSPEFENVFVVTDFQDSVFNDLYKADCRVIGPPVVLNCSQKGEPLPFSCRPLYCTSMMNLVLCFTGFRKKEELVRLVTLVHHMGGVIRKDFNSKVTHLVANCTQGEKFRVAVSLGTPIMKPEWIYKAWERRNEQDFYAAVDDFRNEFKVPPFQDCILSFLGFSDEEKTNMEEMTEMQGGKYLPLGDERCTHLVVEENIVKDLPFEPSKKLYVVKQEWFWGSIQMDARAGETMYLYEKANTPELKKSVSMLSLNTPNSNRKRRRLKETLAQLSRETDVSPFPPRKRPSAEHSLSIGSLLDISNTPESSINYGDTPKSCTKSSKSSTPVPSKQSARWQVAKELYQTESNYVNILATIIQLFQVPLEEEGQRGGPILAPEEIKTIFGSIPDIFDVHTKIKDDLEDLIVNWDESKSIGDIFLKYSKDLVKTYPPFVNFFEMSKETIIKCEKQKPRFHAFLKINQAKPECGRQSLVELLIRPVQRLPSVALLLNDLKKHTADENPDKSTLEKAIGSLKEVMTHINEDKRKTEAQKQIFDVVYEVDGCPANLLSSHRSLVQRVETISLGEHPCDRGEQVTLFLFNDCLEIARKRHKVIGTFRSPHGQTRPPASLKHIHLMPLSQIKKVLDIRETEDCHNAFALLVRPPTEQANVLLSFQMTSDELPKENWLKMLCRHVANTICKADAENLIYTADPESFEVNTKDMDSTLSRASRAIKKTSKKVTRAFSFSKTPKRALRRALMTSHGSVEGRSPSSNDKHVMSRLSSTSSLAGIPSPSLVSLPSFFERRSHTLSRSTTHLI
UniProt P20042, whole entry, looked up: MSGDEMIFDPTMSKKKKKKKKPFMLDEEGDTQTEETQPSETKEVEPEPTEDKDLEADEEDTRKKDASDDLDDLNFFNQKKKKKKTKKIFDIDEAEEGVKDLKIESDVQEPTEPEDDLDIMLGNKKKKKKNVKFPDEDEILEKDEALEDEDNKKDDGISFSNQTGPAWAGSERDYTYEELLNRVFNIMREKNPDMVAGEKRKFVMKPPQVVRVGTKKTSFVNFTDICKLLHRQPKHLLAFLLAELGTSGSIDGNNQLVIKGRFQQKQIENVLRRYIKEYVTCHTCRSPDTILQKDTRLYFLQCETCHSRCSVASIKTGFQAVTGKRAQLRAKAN
UniProt Q9UHF1: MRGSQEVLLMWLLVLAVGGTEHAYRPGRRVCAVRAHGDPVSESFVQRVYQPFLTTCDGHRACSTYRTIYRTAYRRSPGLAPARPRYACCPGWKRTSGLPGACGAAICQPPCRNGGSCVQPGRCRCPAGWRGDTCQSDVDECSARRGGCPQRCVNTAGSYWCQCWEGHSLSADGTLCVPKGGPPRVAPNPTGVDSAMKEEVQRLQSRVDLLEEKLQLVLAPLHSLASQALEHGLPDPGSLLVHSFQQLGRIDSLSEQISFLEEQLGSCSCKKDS

The targets below were run with Cc1cc(ccc1-c1ccccc1)C(=O)N1CCCN(CC1)C(=O)CCl [compound 10] (assay: probe-labelled cysteine peptide fold change vs DMSO (competition) (log2 fold change); higher = less target engagement (more negative = stronger competition)). Conditions: 10 µM; THP-1; incubation time: 4 h.
For “EIF2B5_Q13144_618_YCALLLPLLK (UniProt Q13144)”, the “probe-labelled cysteine peptide fold change” value was 0.0519.
With “EED_O75530_324_SCENAIVCWKPGK (UniProt O75530)” the “probe-labelled cysteine peptide fold change” value was 0.0669.
With “EEF1A1_P68104_411_PMCVESFSDYPPLGR (UniProt P68104)” the “probe-labelled cysteine peptide fold change” value was -0.147.
“EIF2B5_Q13144_335_WVYPLTPEANFTDSTTQSCTHSR (UniProt Q13144)” was tested, and the “probe-labelled cysteine peptide fold change” value was 0.00158.
In the case of “EFL1_Q7Z2Z2_831_CGPNILVNK (UniProt Q7Z2Z2)”, the “probe-labelled cysteine peptide fold change” value is reported as -0.0761.
With “EDC3_Q96F86_272_EFCTDSGLVVPSISYELHK (UniProt Q96F86)” the “probe-labelled cysteine peptide fold change” value was 0.052.
For “EFTUD2_Q15029_144+148_TCFVDCLIEQTHPEIRK (UniProt Q15029)”, the “probe-labelled cysteine peptide fold change” value was -0.133.
With “EFL1_Q7Z2Z2_23_NICVLAHVDHGK (UniProt Q7Z2Z2)” the “probe-labelled cysteine peptide fold change” value was 0.0879.
In the case of “EFTUD2_Q15029_639_SYPSLTTKVEESGEHVILGTGELYLDCVMHDLRK (UniProt Q15029)”, the “probe-labelled cysteine peptide fold change” value is reported as -0.296.
With “EFTUD2_Q15029_780_EGPLCDELIR (UniProt Q15029)” the “probe-labelled cysteine peptide fold change” value was -0.1.
In the case of “EEF1A2_Q05639_326_GNVCGDSK (UniProt Q05639)”, the “probe-labelled cysteine peptide fold change” value is reported as -0.272.
“EIF1B_O60739_94_NICQFLLEVGIVK (UniProt O60739)” was tested, and the “probe-labelled cysteine peptide fold change” value was 0.546.
For “EHBP1L1_Q8N3D4_1364_FQDTSQYVCAELQALEQEQR (UniProt Q8N3D4)”, the “probe-labelled cysteine peptide fold change” value was -0.00798.
In the case of “EDC3_Q96F86_311_RLEMTGVCASQMALTLLGGPNR (UniProt Q96F86)”, the “probe-labelled cysteine peptide fold change” value is reported as 0.172.
In the case of “EHMT2_Q96KQ7_866_ESYHDCVLLFLSR (UniProt Q96KQ7)”, the “probe-labelled cysteine peptide fold change” value is reported as 0.156.
With “EHMT2_Q96KQ7_957_YISENCETSTMNIDR (UniProt Q96KQ7)” the “probe-labelled cysteine peptide fold change” value was -0.21.
For “EDC3_Q96F86_341_NVHQRPTVALLCGPHVK (UniProt Q96F86)”, the “probe-labelled cysteine peptide fold change” value was 0.0629.
“EIF2S1_P05198_218_AGLNCSTENMPIK (UniProt P05198)” was tested, and the “probe-labelled cysteine peptide fold change” value was -0.0254.
“EED_O75530_182_IINPITMQCIK (UniProt O75530)” was tested, and the “probe-labelled cysteine peptide fold change” value was -0.0539.
In the case of “EFEMP1_Q12805_298_LNCEDIDECR (UniProt Q12805)”, the “probe-labelled cysteine peptide fold change” value is reported as -0.427.
For “EIF2S1_P05198_70_IGRNECVVVIRVDK (UniProt P05198)”, the “probe-labelled cysteine peptide fold change” value was -0.134.
In the case of “EIF1AX_P47813_51_LEAMCFDGVK (UniProt P47813)”, the “probe-labelled cysteine peptide fold change” value is reported as 0.115.
“EIF2B3_Q9NR50_300_CYVHIMK (UniProt Q9NR50)” was tested, and the “probe-labelled cysteine peptide fold change” value was -0.00138.
With “EDC4_Q6P2E9_1130_SCQAMFQQINDSFR (UniProt Q6P2E9)” the “probe-labelled cysteine peptide fold change” value was 0.234.
“EDEM1_Q92611_160_GMFVFGYDNYMAHAFPQDELNPIHCR (UniProt Q92611)” was tested, and the “probe-labelled cysteine peptide fold change” value was 0.032.
In the case of “EIF1AD_Q8N9N8_89_AEISFVLCK (UniProt Q8N9N8)”, the “probe-labelled cysteine peptide fold change” value is reported as -0.0675.
“EHMT2_Q96KQ7_428_GFEELPLCSCR (UniProt Q96KQ7)” was tested, and the “probe-labelled cysteine peptide fold change” value was 0.0422.
In the case of “EFTUD2_Q15029_639_VEESGEHVILGTGELYLDCVMHDLRK (UniProt Q15029)”, the “probe-labelled cysteine peptide fold change” value is reported as 0.0466.
For EIF2S1_P05198_6_PGLSCR (UniProt P05198), the “probe-labelled cysteine peptide fold change” value was -0.121.
With “EEF1A1P5_Q5VTE0_363+370_NDPPMEAAGFTAQVIILNHPGQISAGYAPVLDCHMAHIACK (UniProt Q5VTE0)” the “probe-labelled cysteine peptide fold change” value was -0.246.
In the case of “EIF2B3_Q9NR50_379_SVIGSSCLIK (UniProt Q9NR50)”, the “probe-labelled cysteine peptide fold change” value is reported as -0.00222.
In the case of “EHMT2_Q96KQ7_426+428_GFEELPLCSCR (UniProt Q96KQ7)”, the “probe-labelled cysteine peptide fold change” value is reported as -0.147.
“ECT2_Q9H8V3_157_VIGPPVVLNCSQK (UniProt Q9H8V3)” was tested, and the “probe-labelled cysteine peptide fold change” value was 0.0827.
With “EIF2S2_P20042_226_KTSFVNFTDICK (UniProt P20042)” the “probe-labelled cysteine peptide fold change” value was 0.0304.
In the case of “EEF2_P13639_536_SDPMVQCIIEESGEHIIAGAGELHLEICLK (UniProt P13639)”, the “probe-labelled cysteine peptide fold change” value is reported as 0.0647.
With “EGFL7_Q9UHF1_267_IDSLSEQISFLEEQLGSCSCK (UniProt Q9UHF1)” the “probe-labelled cysteine peptide fold change” value was 0.128.

Same assay, conditions: 50 µM; THP-1; incubation time: 4 h
With “EIF2B5_Q13144_618_YCALLLPLLK (UniProt Q13144)” the “probe-labelled cysteine peptide fold change” value was 0.494.
“EED_O75530_324_SCENAIVCWKPGK (UniProt O75530)” was tested, and the “probe-labelled cysteine peptide fold change” value was -0.244.
With “EEF1A1_P68104_411_PMCVESFSDYPPLGR (UniProt P68104)” the “probe-labelled cysteine peptide fold change” value was 0.165.
For “EIF2B5_Q13144_335_WVYPLTPEANFTDSTTQSCTHSR (UniProt Q13144)”, the “probe-labelled cysteine peptide fold change” value was 0.277.
In the case of “EFL1_Q7Z2Z2_831_CGPNILVNK (UniProt Q7Z2Z2)”, the “probe-labelled cysteine peptide fold change” value is reported as 0.083.
With “EDC3_Q96F86_272_EFCTDSGLVVPSISYELHK (UniProt Q96F86)” the “probe-labelled cysteine peptide fold change” value was -0.118.
For “EFTUD2_Q15029_144+148_TCFVDCLIEQTHPEIRK (UniProt Q15029)”, the “probe-labelled cysteine peptide fold change” value was -0.385.
In the case of “EFL1_Q7Z2Z2_23_NICVLAHVDHGK (UniProt Q7Z2Z2)”, the “probe-labelled cysteine peptide fold change” value is reported as 0.0694.
“EFTUD2_Q15029_639_SYPSLTTKVEESGEHVILGTGELYLDCVMHDLRK (UniProt Q15029)” was tested, and the “probe-labelled cysteine peptide fold change” value was -0.695.
In the case of “EFTUD2_Q15029_780_EGPLCDELIR (UniProt Q15029)”, the “probe-labelled cysteine peptide fold change” value is reported as 0.075.
With “EEF1A2_Q05639_326_GNVCGDSK (UniProt Q05639)” the “probe-labelled cysteine peptide fold change” value was -0.14.
With “EIF1B_O60739_94_NICQFLLEVGIVK (UniProt O60739)” the “probe-labelled cysteine peptide fold change” value was 0.0715.
With “EHBP1L1_Q8N3D4_1364_FQDTSQYVCAELQALEQEQR (UniProt Q8N3D4)” the “probe-labelled cysteine peptide fold change” value was -0.434.
In the case of “EDC3_Q96F86_311_RLEMTGVCASQMALTLLGGPNR (UniProt Q96F86)”, the “probe-labelled cysteine peptide fold change” value is reported as 0.142.
For “EHMT2_Q96KQ7_866_ESYHDCVLLFLSR (UniProt Q96KQ7)”, the “probe-labelled cysteine peptide fold change” value was 0.221.
“EHMT2_Q96KQ7_957_YISENCETSTMNIDR (UniProt Q96KQ7)” was tested, and the “probe-labelled cysteine peptide fold change” value was -0.0775.
For “EDC3_Q96F86_341_NVHQRPTVALLCGPHVK (UniProt Q96F86)”, the “probe-labelled cysteine peptide fold change” value was 0.0808.
With “EIF2S1_P05198_218_AGLNCSTENMPIK (UniProt P05198)” the “probe-labelled cysteine peptide fold change” value was -0.158.
“EED_O75530_182_IINPITMQCIK (UniProt O75530)” was tested, and the “probe-labelled cysteine peptide fold change” value was -0.0919.
In the case of “EFEMP1_Q12805_298_LNCEDIDECR (UniProt Q12805)”, the “probe-labelled cysteine peptide fold change” value is reported as -0.0208.
“EIF2S1_P05198_70_IGRNECVVVIRVDK (UniProt P05198)” was tested, and the “probe-labelled cysteine peptide fold change” value was -0.44.
For “EIF1AX_P47813_51_LEAMCFDGVK (UniProt P47813)”, the “probe-labelled cysteine peptide fold change” value was 0.162.
With “EIF2B3_Q9NR50_300_CYVHIMK (UniProt Q9NR50)” the “probe-labelled cysteine peptide fold change” value was 0.109.
For “EDC4_Q6P2E9_1130_SCQAMFQQINDSFR (UniProt Q6P2E9)”, the “probe-labelled cysteine peptide fold change” value was 0.263.
“EDEM1_Q92611_160_GMFVFGYDNYMAHAFPQDELNPIHCR (UniProt Q92611)” was tested, and the “probe-labelled cysteine peptide fold change” value was 0.21.
With “EIF1AD_Q8N9N8_89_AEISFVLCK (UniProt Q8N9N8)” the “probe-labelled cysteine peptide fold change” value was -0.261.
With “EHMT2_Q96KQ7_428_GFEELPLCSCR (UniProt Q96KQ7)” the “probe-labelled cysteine peptide fold change” value was 0.126.
In the case of “EFTUD2_Q15029_639_VEESGEHVILGTGELYLDCVMHDLRK (UniProt Q15029)”, the “probe-labelled cysteine peptide fold change” value is reported as 0.0835.
In the case of EIF2S1_P05198_6_PGLSCR (UniProt P05198), the “probe-labelled cysteine peptide fold change” value is reported as -0.205.
“EEF1A1P5_Q5VTE0_363+370_NDPPMEAAGFTAQVIILNHPGQISAGYAPVLDCHMAHIACK (UniProt Q5VTE0)” was tested, and the “probe-labelled cysteine peptide fold change” value was -0.0248.
With “EIF2B3_Q9NR50_379_SVIGSSCLIK (UniProt Q9NR50)” the “probe-labelled cysteine peptide fold change” value was 0.0328.
“EHMT2_Q96KQ7_426+428_GFEELPLCSCR (UniProt Q96KQ7)” was tested, and the “probe-labelled cysteine peptide fold change” value was -0.267.
For “ECT2_Q9H8V3_157_VIGPPVVLNCSQK (UniProt Q9H8V3)”, the “probe-labelled cysteine peptide fold change” value was -0.252.
With “EIF2S2_P20042_226_KTSFVNFTDICK (UniProt P20042)” the “probe-labelled cysteine peptide fold change” value was -0.239.
For “EEF2_P13639_536_SDPMVQCIIEESGEHIIAGAGELHLEICLK (UniProt P13639)”, the “probe-labelled cysteine peptide fold change” value was -0.00294.
For “EGFL7_Q9UHF1_267_IDSLSEQISFLEEQLGSCSCK (UniProt Q9UHF1)”, the “probe-labelled cysteine peptide fold change” value was 0.309.
